The record followed here is paper doi:10.1101/2021.06.01.446555.

Chains of the proteins cited; added tags and fusions are not shown.
UniProt P0DTC3, whole entry: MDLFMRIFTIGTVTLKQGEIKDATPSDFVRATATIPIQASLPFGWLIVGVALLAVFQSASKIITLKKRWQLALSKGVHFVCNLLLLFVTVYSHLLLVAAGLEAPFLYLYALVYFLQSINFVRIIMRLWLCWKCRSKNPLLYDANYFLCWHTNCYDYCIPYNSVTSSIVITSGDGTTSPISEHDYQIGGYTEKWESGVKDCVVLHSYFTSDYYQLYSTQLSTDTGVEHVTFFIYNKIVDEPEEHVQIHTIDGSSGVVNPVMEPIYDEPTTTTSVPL

The target in assay [1] is ORF3a-linker-GFP (SARS-CoV-2 ORF3a tagged with GFP) (SARS-CoV-2) (UniProt P0DTC3). Briefly: proximity labelling.
For assay [2], the target named is ORF3a-linker-GFP (SARS-CoV-2 ORF3a tagged with GFP) (SARS-CoV-2), P0DTC3. Briefly: proximity labelling. The following applies: remark: other sources report otherwise.

These are yes or no findings as the source states them, for the method shown. In cells and extracts the contact can be indirect. A yes stands for co-enrichment or nearness to the bait. Other partners may have been found.

B1: JAM3 (protein, UniProt Q9BX67 32-310)
chain: VNLKSSNRTPVVQEFESVELSCIITDSQTSDPRIEWKKIQDEQTTYVFFDNKIQGDLAGRAEILGKTSLKIWNVTRRDSALYRCEVVARNDRKEIDEIVIELTVQVKPVTPVCRVPKAVPVGKMATLHCQESEGHPRPHYSWYRNDVPLPTDSRANPRFRNSSFHLNSETGTLVFTAVHKDDSGQYYCIASNDAGSARCEEQEMEVYDLNIGGIIGGVLVVLAVLALITLGICCAYRRGYFINNKQDGESYKNPGKPDGVNYIRTDEEGDFRHKSSFVI
As for B1, the binding entry in assay [1] is reported as “binds”.

B2: USE1 (protein, UniProt Q9NZ43 1-259)
chain: MAASRLELNLVRLLSRCEAMAAEKRDPDEWRLEKYVGALEDMLQALKVHASKPASEVINEYSWKVDFLKGMLQAEKLTSSSEKALANQFLAPGRVPTTARERVPATKTVHLQSRARYTSEMRSELLGTDSAEPEMDVRKRTGVAGSQPVSEKQLAAELDLVLQRHQNLQEKLAEEMLGLARSLKTNTLAAQSVIKKDNQTLSHSLKMADQNLEKLKTESERLEQHTQKSVNWLLWAMLIIVCFIFISMILFIRIMPKLK
In the case of B2, in assay [1], the binding entry was “binds”.

B3: VPS16, Q9H269 1-839 (protein)
chain: MDCYTANWNPLGDSAFYRKYELYSMDWDLKEELRDCLVAAAPYGGPIALLRNPWRKEKAASVRPVLDIYSASGMPLASLLWKSGPVVSLGWSAEEELLCVQEDGAVLVYGLHGDFRRHFSMGNEVLQNRVLDARIFHTEFGSGVAILTGAHRFTLSANVGDLKLRRMPEVPGLQSAPSCWTVLCQDRVAHILLAVGPDLYLLDHAACSAVTPPGLAPGVSSFLQMAVSFTYRHLALFTDTGYIWMGTASLKEKLCEFNCNIRAPPKQMVWCSRPRSKERAVVVAWERRLMVVGDAPESIQFVLDEDSYLVPELDGVRIFSRSTHEFLHEVPAASEEIFKIASMAPGALLLEAQKEYEKESQKADEYLREIQELGQLTQAVQQCIEAAGHEHQPDMQKSLLRAASFGKCFLDRFPPDSFVHMCQDLRVLNAVRDYHIGIPLTYSQYKQLTIQVLLDRLVLRRLYPLAIQICEYLRLPEVQGVSRILAHWACYKVQQKDVSDEDVARAINQKLGDTPGVSYSDIAARAYGCGRTELAIKLLEYEPRSGEQVPLLLKMKRSKLALSKAIESGDTDLVFTVLLHLKNELNRGDFFMTLRNQPMALSLYRQFCKHQELETLKDLYNQDDNHQELGSFHIRASYAAEERIEGRVAALQTAADAFYKAKNEFAAKATEDQMRLLRLQRRLEDELGGQFLDLSLHDTVTTLILGGHNKRAEQLARDFRIPDKRLWWLKLTALADLEDWEELEKFSKSKKSPIGYLPFVEICMKQHNKYEAKKYASRVGPEQKVKALLLVGDVAQAADVAIEHRNEAELSLVLSHCTGATDGATADKIQRARAQAQKK
Take B3: in assay [2], the binding entry is given as “binds”.

B4: TMEM165 (protein, UniProt Q9HC07 34-324)
chain: GPDEDLSHRNKEPPAPAQQLQPQPVAVQGPEPARVEKIFTPAAPVHTNKEDPATQTNLGFIHAFVAAISVIIVSELGDKTFFIAAIMAMRYNRLTVLAGAMLALGLMTCLSVLFGYATTVIPRVYTYYVSTVLFAIFGIRMLREGLKMSPDEGQEELEEVQAELKKKDEEFQRTKLLNGPGDVETGTSITVPQKKWLHFISPIFVQALTLTFLAEWGDRSQLTTIVLAAREDPYGVAVGGTVGHCLCTGLAVIGGRMIAQKISVRTVTIIGGIVFLAFAFSALFISPDSGF
Regarding B4, the binding entry in assay [1] is listed as “binds”.

B5: VMA21 (protein, UniProt Q3ZAQ7 1-101)
chain: MERPDKAALNALQPPEFRNESSLASTLKTLLFFTALMITVPIGLYFTTKSYIFEGALGMSNRDSYFYAAIVAVVAVHVVLALFVYVAWNEGSRQWREGKQD
In the case of B5, the binding result in assay [1] is “binds”.

B6: SCD5 (protein, UniProt Q86SK9 1-330)
chain: MPGPATDAGKIPFCDAKEEIRAGLESSEGGGGPERPGARGQRQNIVWRNVVLMSLLHLGAVYSLVLIPKAKPLTLLWAYFCFLLAALGVTAGAHRLWSHRSYRAKLPLRIFLAVANSMAFQNDIFEWSRDHRAHHKYSETDADPHNARRGFFFSHIGWLFVRKHRDVIEKGRKLDVTDLLADPVVRIQRKYYKISVVLMCFVVPTLVPWYIWGESLWNSYFLASILRYTISLNISWLVNSAAHMYGNRPYDKHISPRQNPLVALGAIGEGFHNYHHTFPFDYSASEFGLNFNPTTWFIDFMCWLGLATDRKRATKPMIEARKARTGDSSA
As for B6, the binding result in assay [1] was “binds”.

B7: BET1 (protein, UniProt O15155 1-118)
chain: MRRAGLGEGVPPGNYGNYGYANSGYSACEEENERLTESLRSKVTAIKSLSIEIGHEVKTQNKLLAEMDSQFDSTTGFLGKTMGKLKILSRGSQTKLLCYMMLFSLFVFFIIYWIIKLR
Regarding B7, in assay [1], the binding entry is given as “binds”.

B8: TMEM110 (protein, UniProt Q86TL2 1-294)
chain: MQGPAGNASRGLPGGPPSTVASGAGRCESGALMHSFGIFLQGLLGVVAFSTLMLKRFREPKHERRPWRIWFLDTSKQAIGMLFIHFANVYLADLTEEDPCSLYLINFLLDATVGMLLIYVGVRAVSVLVEWQQWESLRFGEYGDPLQCGAWVGQCALYIVIMIFEKSVVFIVLLILQWKKVALLNPIENPDLKLAIVMLIVPFFVNALMFWVVDNFLMRKGKTKAKLEERGANQDSRNGSKVRYRRAASHEESESEILISADDEMEESDVEEDLRRLTPLKPVKKKKHRFGLPV
With B8, the binding entry in assay [1] is “binds”.

B9: DHCR7 (protein, UniProt Q9UBM7 1-475)
chain: MAAKSQPNIPKAKSLDGVTNDRTASQGQWGRAWEVDWFSLASVIFLLLFAPFIVYYFIMACDQYSCALTGPVVDIVTGHARLSDIWAKTPPITRKAAQLYTLWVTFQVLLYTSLPDFCHKFLPGYVGGIQEGAVTPAGVVNKYQINGLQAWLLTHLLWFANAHLLSWFSPTIIFDNWIPLLWCANILGYAVSTFAMVKGYFFPTSARDCKFTGNFFYNYMMGIEFNPRIGKWFDFKLFFNGRPGIVAWTLINLSFAAKQRELHSHVTNAMVLVNVLQAIYVIDFFWNETWYLKTIDICHDHFGWYLGWGDCVWLPYLYTLQGLYLVYHPVQLSTPHAVGVLLLGLVGYYIFRVANHQKDLFRRTDGRCLIWGRKPKVIECSYTSADGQRHHSKLLVSGFWGVARHFNYVGDLMGSLAYCLACGGGHLLPYFYIIYMAILLTHRCLRDEHRCASKYGRDWERYTAAVPYRLLPGIF
On to B9, for which, in assay [1], the binding entry is “binds”.

B10: CLCC1 (protein, UniProt Q96S66 19-551)
chain: HDDDWIDPTDMLNYDAASGTMRKSQAKYGISGEKDVSPDLSCADEISECYHKLDSLTYKIDECEKKKREDYESQSNPVFRRYLNKILIEAGKLGLPDENKGDMHYDAEIILKRETLLEIQKFLNGEDWKPGALDDALSDILINFKFHDFETWKWRFEDSFGVDPYNVLMVLLCLLCIVVLVATELWTYVRWYTQLRRVLIISFLFSLGWNWMYLYKLAFAQHQAEVAKMEPLNNVCAKKMDWTGSIWEWFRSSWTYKDDPCQKYYELLLVNPIWLVPPTKALAVTFTTFVTEPLKHIGKGTGEFIKALMKEIPALLHLPVLIIMALAILSFCYGAGKSVHVLRHIGGPESEPPQALRPRDRRRQEEIDYRPDGGAGDADFHYRGQMGPTEQGPYAKTYEGRREILRERDVDLRFQTGNKSPEVLRAFDVPDAEAREHPTVVPSHKSPVLDTKPKETGGILGEGTPKESSTESSQSAKPVSGQDTSGNTEGSPAAEKAQLKSEAAGSPDQGSTYSPARGVAGPRGQDPVSSPCG
Take B10: in assay [1], the binding result is “binds”.
